Laboratory results from publication PMC12127886, “Mapping Hsp104 interactions using cross‐linking mass spectrometry” (FEBS Open Bio, 2025).

Amino acid sequences for entries named in this document (tags omitted). A change or cut given only in a name is not applied to a line headed by its entry. Residues count along the entry.
UniProt Q8NBP7, residues 153-692: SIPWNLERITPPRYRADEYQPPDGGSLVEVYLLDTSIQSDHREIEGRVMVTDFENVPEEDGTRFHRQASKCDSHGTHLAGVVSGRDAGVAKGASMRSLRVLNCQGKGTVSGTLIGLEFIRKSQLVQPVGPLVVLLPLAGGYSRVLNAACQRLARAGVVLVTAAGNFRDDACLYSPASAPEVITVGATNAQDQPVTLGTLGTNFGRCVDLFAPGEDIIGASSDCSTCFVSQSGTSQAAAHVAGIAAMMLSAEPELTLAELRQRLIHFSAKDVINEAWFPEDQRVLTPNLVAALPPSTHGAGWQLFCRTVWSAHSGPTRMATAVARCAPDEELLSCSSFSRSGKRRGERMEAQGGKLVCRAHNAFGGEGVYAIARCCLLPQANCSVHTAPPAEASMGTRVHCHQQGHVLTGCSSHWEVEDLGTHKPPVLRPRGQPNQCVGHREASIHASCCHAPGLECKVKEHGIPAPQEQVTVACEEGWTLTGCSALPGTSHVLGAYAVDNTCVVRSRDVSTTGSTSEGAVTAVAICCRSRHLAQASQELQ

Molecular target: Thermochaetoides thermophila TtHsp104 full length (Thermochaetoides thermophila)
Experiment: cross-linking; co-purified Hsp104fl:PCSK9 complex, 0.3 mg/mL in 20 mM HEPES-KOH 7.57, 100 mM KCl, 2 mM MgCl2, 2 mM ATP, 4 mM DTT; DMTMM or ADH/DMTMM; SDS/PAGE and LC-MS/MS (xQuest), Id-score cutoff 15; DSS data excluded; both purified

binding: binds
Substance: PCSK9ΔN (153–692) (from UniProt Q8NBP7 153-692) (domain or fragment)

Results are given in words; binding and its absence hold for the method and conditions named. In cells and extracts the contact can be indirect. A result given as binding can be weak or reduced; the word gives no strength.
